Record: PubChem BioAssay AID504804 (Drosophila RNAi Screening Center, 2011)

- Aim: 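dsRNAs that improve Kc cell survival under doxorubicin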 (primary screen)
- Cells: Drosophila Kc cells
- Knock-down reagent: long dsRNA against Drosophila genes, 0.5 µg dsRNA per well
- Duration: 96 h (48 h knock-down, then 48 h drug)
- Treatment: doxorubicin 5 µg/ml for 48 h, added 48 h after dsRNA
- Read-out: 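Luminescent ATP counts per replicate, not normalised, reflecting viable cells after 48 h dsRNA knock-down followed by 48 h of 5 µg/ml doxorubicin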
- Reading the numbers: raw ATP luminescence: higher = more viable cells, protection from doxorubicin
- Call rule: 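z-score of 2 or more over plate mean in both duplicates, retained only when retests and separate dsRNAs confirm the protection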
The deposit covers about 19,000 reagents; below is a random part of those that have a named target and a result. Over the whole deposit, 47 (0.25%) got an active call. 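Signals are raw, not normalised; exact z-scores behind calls not deposited; actives needed confirmation, so some wells reaching 2 SD are inactive.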

CG6569 (GeneID 42573) [DRSC16067] scored raw ATP luminescence, replicate 1 = 64990; raw ATP luminescence, replicate 2 = 81150; inactive.
For rk (GeneID 34819) [DRSC03602], the entry reads raw ATP luminescence, replicate 1 = 78670; raw ATP luminescence, replicate 2 = 74820; inactive.
After knock-down of CG2201 (GeneID 35417) [DRSC03721] the results were raw ATP luminescence, replicate 1 = 60677; raw ATP luminescence, replicate 2 = 65863; inactive.
Qsox3 (GeneID 42582) [DRSC16096] gave raw ATP luminescence, replicate 1 = 59880; raw ATP luminescence, replicate 2 = 72480; inactive.
Panx (GeneID 37434) [DRSC04563] showed raw ATP luminescence, replicate 1 = 52243; raw ATP luminescence, replicate 2 = 60837; inactive.
With knock-down of BuGZ (GeneID 35004) [DRSC02642] the results were raw ATP luminescence, replicate 1 = 68650; raw ATP luminescence, replicate 2 = 51320; inactive.
For BuGZ (GeneID 35004) [DRSC02643], the entry reads raw ATP luminescence, replicate 1 = 41460; raw ATP luminescence, replicate 2 = 60680; inactive.
For Obp83b (GeneID 40738) [DRSC12360], the values are raw ATP luminescence, replicate 1 = 54017; raw ATP luminescence, replicate 2 = 52727; inactive.
After knock-down of CG14811 (GeneID 31132) [DRSC17962], the record shows raw ATP luminescence, replicate 1 = 54220; raw ATP luminescence, replicate 2 = 42770; inactive.
Uvrag (GeneID 34735) [DRSC02932] showed raw ATP luminescence, replicate 1 = 1.02e5; raw ATP luminescence, replicate 2 = 69280; inactive.
For ND-24L (GeneID 39926) [DRSC10650], the values are raw ATP luminescence, replicate 1 = 35323; raw ATP luminescence, replicate 2 = 29257; inactive.
5-HT1B (GeneID 37191) [DRSC05769] showed raw ATP luminescence, replicate 1 = 19957; raw ATP luminescence, replicate 2 = 14313; inactive.
For Hs3st-B (GeneID 32918) [DRSC20067] the deposit lists raw ATP luminescence, replicate 1 = 3.69e5; raw ATP luminescence, replicate 2 = 3.67e5; inactive.
For Veneno (GeneID 41000) [DRSC16537] the deposit lists raw ATP luminescence, replicate 1 = 45590; raw ATP luminescence, replicate 2 = 41107; inactive.
For CG8064 (GeneID 42196) [DRSC16373] the deposit lists raw ATP luminescence, replicate 1 = 41890; raw ATP luminescence, replicate 2 = 46693; inactive.
Knock-down of msi (GeneID 43087) [DRSC17003] came out at: raw ATP luminescence, replicate 1 = 35810; raw ATP luminescence, replicate 2 = 30070; inactive.

6 of these entries, reformatted:
{"predicted target":"CG2201 (GeneID 35417)","amplicon":"DRSC03721","raw ATP luminescence, replicate 1":60677,"raw ATP luminescence, replicate 2":65863,"call":"inactive"}
{"predicted target":"Qsox3 (GeneID 42582)","amplicon":"DRSC16096","raw ATP luminescence, replicate 1":59880,"raw ATP luminescence, replicate 2":72480,"call":"inactive"}
{"predicted target":"Panx (GeneID 37434)","amplicon":"DRSC04563","raw ATP luminescence, replicate 1":52243,"raw ATP luminescence, replicate 2":60837,"call":"inactive"}
{"predicted target":"BuGZ (GeneID 35004)","amplicon":"DRSC02642","raw ATP luminescence, replicate 1":68650,"raw ATP luminescence, replicate 2":51320,"call":"inactive"}
{"predicted target":"BuGZ (GeneID 35004)","amplicon":"DRSC02643","raw ATP luminescence, replicate 1":41460,"raw ATP luminescence, replicate 2":60680,"call":"inactive"}
{"predicted target":"Obp83b (GeneID 40738)","amplicon":"DRSC12360","raw ATP luminescence, replicate 1":54017,"raw ATP luminescence, replicate 2":52727,"call":"inactive"}

The listing continues.
Silencing of pasi2 (GeneID 41113) [DRSC16380] resulted in: raw ATP luminescence, replicate 1 = 53717; raw ATP luminescence, replicate 2 = 56877; inactive.
With knock-down of wls (GeneID 39259) [DRSC10605], the screen gave raw ATP luminescence, replicate 1 = 41347; raw ATP luminescence, replicate 2 = 51723; inactive.
After knock-down of CG13532 (GeneID 37632) [DRSC04174], the screen gave raw ATP luminescence, replicate 1 = 41943; raw ATP luminescence, replicate 2 = 45227; inactive.
For comm3 (GeneID 39696) [DRSC09993], the values are raw ATP luminescence, replicate 1 = 55683; raw ATP luminescence, replicate 2 = 54003; inactive.
comm3 (GeneID 39696) [DRSC09994] gave raw ATP luminescence, replicate 1 = 41843; raw ATP luminescence, replicate 2 = 40273; inactive.
Knock-down of comm3 (GeneID 39696) [DRSC09995] gave: raw ATP luminescence, replicate 1 = 40760; raw ATP luminescence, replicate 2 = 41653; inactive.
Knock-down of CG9568 (GeneID 34227) [DRSC03265] gave: raw ATP luminescence, replicate 1 = 43520; raw ATP luminescence, replicate 2 = 80227; inactive.
CG9098 (GeneID 33840) [DRSC03136] showed raw ATP luminescence, replicate 1 = 1.05e5; raw ATP luminescence, replicate 2 = 69090; inactive.
Depletion of ppk19 (GeneID 43489) [DRSC15321] came out at: raw ATP luminescence, replicate 1 = 45990; raw ATP luminescence, replicate 2 = 33520; inactive.
With knock-down of CG14414 (GeneID 32394) [DRSC19599] the results were raw ATP luminescence, replicate 1 = 3.08e5; raw ATP luminescence, replicate 2 = 2.86e5; inactive.
Depletion of Hrb87F (GeneID 48535) [DRSC16708] gave: raw ATP luminescence, replicate 1 = 40010; raw ATP luminescence, replicate 2 = 22690; inactive.
Silencing of Hs3st-A (GeneID 37161) [DRSC06507] gave: raw ATP luminescence, replicate 1 = 38237; raw ATP luminescence, replicate 2 = 61363; inactive.
Against Hsc70-4 (GeneID 41840) [DRSC16711] the deposit lists raw ATP luminescence, replicate 1 = 77810; raw ATP luminescence, replicate 2 = 69000; inactive.
After knock-down of CycE (GeneID 34924) [DRSC03295], the record shows raw ATP luminescence, replicate 1 = 10817; raw ATP luminescence, replicate 2 = 41447; inactive.
For CycE (GeneID 34924) [DRSC03296] the deposit lists raw ATP luminescence, replicate 1 = 51943; raw ATP luminescence, replicate 2 = 51117; inactive.
After knock-down of CG33453 (GeneID 2768851) [DRSC05782] the results were raw ATP luminescence, replicate 1 = 1.74e5; raw ATP luminescence, replicate 2 = 1.18e5; inactive.
Against CG8925 (GeneID 41963) [DRSC16455] the deposit lists raw ATP luminescence, replicate 1 = 92220; raw ATP luminescence, replicate 2 = 70480; inactive.
Against CG8925 (GeneID 41963) [DRSC16456], the entry reads raw ATP luminescence, replicate 1 = 63680; raw ATP luminescence, replicate 2 = 71960; inactive.
Silencing of CG8925 (GeneID 41963) [DRSC16457] resulted in: raw ATP luminescence, replicate 1 = 82770; raw ATP luminescence, replicate 2 = 80020; inactive.
RpL19 (GeneID 37995) [DRSC04649] showed raw ATP luminescence, replicate 1 = 31420; raw ATP luminescence, replicate 2 = 27603; inactive.
